Laboratory results: US20110142830A1
These are yes or no findings as the source states them, for the method shown. In cells and extracts the contact can be indirect. Some results given as binding are weak or reduced against the parent protein; the word gives no strength.

Amino acid sequences for entries named in this document (tags omitted). A change or cut given only in a name is not applied to a line headed by its entry.
UniProt Q8NER1: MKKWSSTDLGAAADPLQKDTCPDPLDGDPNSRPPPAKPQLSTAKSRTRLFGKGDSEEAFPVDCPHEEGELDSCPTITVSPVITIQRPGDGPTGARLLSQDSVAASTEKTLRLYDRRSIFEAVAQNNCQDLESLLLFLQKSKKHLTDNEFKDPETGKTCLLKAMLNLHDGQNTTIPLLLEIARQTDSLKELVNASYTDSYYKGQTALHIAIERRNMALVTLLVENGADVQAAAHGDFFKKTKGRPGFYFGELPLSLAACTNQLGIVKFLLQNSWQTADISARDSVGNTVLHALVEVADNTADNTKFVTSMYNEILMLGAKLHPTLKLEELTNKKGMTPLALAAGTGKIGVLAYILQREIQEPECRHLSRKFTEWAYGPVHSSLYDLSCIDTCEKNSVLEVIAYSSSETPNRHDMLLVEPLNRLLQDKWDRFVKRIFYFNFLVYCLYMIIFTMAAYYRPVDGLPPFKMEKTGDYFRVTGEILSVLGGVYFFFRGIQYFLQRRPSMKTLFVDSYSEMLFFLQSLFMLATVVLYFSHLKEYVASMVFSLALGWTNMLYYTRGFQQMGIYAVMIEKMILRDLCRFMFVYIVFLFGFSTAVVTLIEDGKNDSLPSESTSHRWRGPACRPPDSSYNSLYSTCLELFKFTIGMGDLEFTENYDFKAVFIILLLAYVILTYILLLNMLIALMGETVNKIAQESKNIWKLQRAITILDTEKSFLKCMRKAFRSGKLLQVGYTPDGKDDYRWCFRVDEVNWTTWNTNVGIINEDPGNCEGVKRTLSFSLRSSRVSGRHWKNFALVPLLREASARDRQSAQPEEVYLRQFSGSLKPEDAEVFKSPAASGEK
UniProt P04629: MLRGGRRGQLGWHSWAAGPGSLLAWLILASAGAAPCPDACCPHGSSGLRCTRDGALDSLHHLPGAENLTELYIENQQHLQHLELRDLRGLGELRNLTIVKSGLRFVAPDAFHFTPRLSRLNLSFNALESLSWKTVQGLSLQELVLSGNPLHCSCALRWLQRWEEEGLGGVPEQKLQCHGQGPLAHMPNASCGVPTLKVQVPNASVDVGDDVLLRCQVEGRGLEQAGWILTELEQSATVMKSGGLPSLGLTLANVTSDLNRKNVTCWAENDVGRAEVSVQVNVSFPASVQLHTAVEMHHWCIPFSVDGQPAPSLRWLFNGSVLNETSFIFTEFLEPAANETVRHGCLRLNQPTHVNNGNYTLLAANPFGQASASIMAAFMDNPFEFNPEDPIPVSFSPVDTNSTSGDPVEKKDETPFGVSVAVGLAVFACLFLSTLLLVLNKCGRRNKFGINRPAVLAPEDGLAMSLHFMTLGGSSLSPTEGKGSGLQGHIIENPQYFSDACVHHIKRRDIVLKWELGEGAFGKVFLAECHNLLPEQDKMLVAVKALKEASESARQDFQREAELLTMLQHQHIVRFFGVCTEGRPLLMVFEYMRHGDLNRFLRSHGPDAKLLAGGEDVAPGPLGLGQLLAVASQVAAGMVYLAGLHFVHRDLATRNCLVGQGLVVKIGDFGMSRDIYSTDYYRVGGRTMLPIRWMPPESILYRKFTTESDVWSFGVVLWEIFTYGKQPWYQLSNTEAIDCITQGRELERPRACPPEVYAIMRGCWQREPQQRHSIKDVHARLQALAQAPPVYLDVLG
UniProt Q99523: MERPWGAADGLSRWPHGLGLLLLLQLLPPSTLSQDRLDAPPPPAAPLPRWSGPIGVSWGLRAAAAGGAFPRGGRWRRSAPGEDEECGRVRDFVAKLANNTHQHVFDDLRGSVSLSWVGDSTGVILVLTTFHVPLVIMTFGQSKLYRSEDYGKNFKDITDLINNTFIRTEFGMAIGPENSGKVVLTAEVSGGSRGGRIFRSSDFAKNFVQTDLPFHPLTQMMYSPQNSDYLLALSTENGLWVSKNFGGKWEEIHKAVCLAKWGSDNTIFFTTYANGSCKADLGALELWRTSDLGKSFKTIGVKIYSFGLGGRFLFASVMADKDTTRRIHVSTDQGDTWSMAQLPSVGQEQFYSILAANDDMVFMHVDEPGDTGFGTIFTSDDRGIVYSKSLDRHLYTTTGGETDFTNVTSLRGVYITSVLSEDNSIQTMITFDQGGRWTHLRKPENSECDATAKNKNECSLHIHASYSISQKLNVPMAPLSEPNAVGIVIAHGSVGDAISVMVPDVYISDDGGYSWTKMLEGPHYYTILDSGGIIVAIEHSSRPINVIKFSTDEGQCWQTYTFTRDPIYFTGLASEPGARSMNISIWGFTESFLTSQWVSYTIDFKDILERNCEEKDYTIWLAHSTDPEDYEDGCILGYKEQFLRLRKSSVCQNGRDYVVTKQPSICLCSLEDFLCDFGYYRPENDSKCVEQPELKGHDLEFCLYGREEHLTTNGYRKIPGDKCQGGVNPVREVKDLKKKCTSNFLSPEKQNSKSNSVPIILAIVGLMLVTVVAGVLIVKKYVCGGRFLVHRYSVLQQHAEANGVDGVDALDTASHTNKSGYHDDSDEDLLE

What was measured:
[1] = biological target: TrpV1 (Homo sapiens (Human)) (UniProt Q8NER1); test: co-immunoprecipitation (anti-TrpV1) from DSP-crosslinked lysates of stably transfected HEK293 cells, western blot
[2] = biological target: TrpV1 (Homo sapiens (Human)) (UniProt Q8NER1); test: co-immunoprecipitation, double transfected HEK293 cells (FIG. 2B)
[3] = biological target: TrkA (Homo sapiens (Human)) (UniProt P04629); test: co-immunoprecipitation (anti-TrkA) from DSP-crosslinked lysates of stably transfected HEK293 cells, western blot
[4] = biological target: TrkA (Homo sapiens (Human)) (UniProt P04629); test: co-immunoprecipitation, double transfected HEK293 cells (FIG. 2A)

Measured: binding

TrkA (from UniProt P04629 33-796) (receptor)
binds: [1] | [2]

Sortilin (from UniProt Q99523 78-831) (receptor)
binds: [1] | [3] | [4] | [2]
